{"source": "patent US11207424B2", "about": "“Methods and materials for increasing viral vector infectivity” (Mayo Foundation for Medical Education and Research, priority 2014, dated 2021)", "test_system": "HeLa cells", "format": "cell-based", "details": "drug 3 hours before AAV9 CMV-Luc transduction, 48 hours p.i.", "note": "At least one compound was matched to its structure with a doubt left.", "data": [{"smiles": "COc1ccc(-c2cc(=O)c3c(O)cc(O)c(-c4cc(-c5cc(=O)c6c(O)cc(O)cc6o5)ccc4OC)c3o2)cc1", "note": "[isoginkgetin]", "values": [{"measurement": "AAV vector transduction (relative luciferase activity)", "value": "did not show notable increases in AAV vector transduction"}]}]}
